# Assay: label from the status in PepcDB records
# 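Further: failed if final PepcDB status was selected cloned or expressed and not failed if soluble or beyond.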
row,Sequence,protein production
1,MQKKYITAIIGTTALSALASTHAQAATTHTVKSGESVWSISHKYGISIAKLKSLNGLTSNLIFPNQVLKVSGSSSRATSTNSGTVYTVKAGDSLSSIAAKYGTTYQKIMQLNGLNNYLIFPGQKLKVSGKATSSSRAKASGSSGRTATYTVKYGDSLSAIASKYGTTYQKIMQLNGLTNFFIYPGQKLKVPGGSSSSSSSNNTRSNGGYYSPTFNHQNLYTWGQCTWHVFNRRAEIGKGISTYWWNANNWDNASAADGYTIDYRPTVGSIAQTDAGYYGHVAFVERVNSDGSILVSEMNWSAAPGNMTYRTIPAYQVRNYKFIHLEHHHHHH,failed
2,MTSVTSIPPAKTMSAFASLLLGGAVLGAVTVQGWLPLASRAQSISAPSGLSRQSFVAAAVERSGPAVVTLETARTVTSSGMTGLPKGLLMDPLFRHFFGVPGASAPRSRVQRGQGSGVIFDAEGLLLTNAHVVEGADTLQVELTDGRSVEAKVIGKDSLTDLAVVRLEGKGPWPIAALGDSDRLKVGDWAIAVGNPYGLENTVTMGIISNLNRNVAQLGISGKRLDLIQTDAAINPGNSGGPLLNAEGEVIGINTLVRSGPGAGLGFAIPINRARSIAQQLVNKGRASHPVIGVGLAAGPLGPVIRSVQPGAPAAGAGLKPGDVITAINGVATASPTQVVATVERNGVGRQLTLSIKRGETTLTVSLTPMDLAA,failed
3,MAMAIAMLPALFSSPSILTSRIRCGATANSGGAISSTSSNSDPRRGVPLYKPKSYEVLATDAANSLAFALQDSKSRLEIDFPPLPSSISSYKGSSDDFIDANIQLAVTVVRKLQEKIETRACIVFPDKPEKRRASQRFKAAFDSVDGISIGSLDDIPGTSVTNFFRSIRSTLDFDFEDENEGTWEPKEPPTLYIFINCSTRELSFIEKFVETFASSTPALLFNLELDTLRADLGLLGFPPKDLHYRFLSQFIPVFYIRTREYSKTVAVAPFVLNYNGALFRQYPGPWQVMLKQTDGSFACVAESPTRFTLGETKEELLQVLGLQEEKGSSLEFLRRGYKSATWWEEDVELEASSNWRN,failed
4,MAYIDYYKILGVDKNASQDDIKKAFRKLARKYHPDLNPNDPSAKDKFQEINEANEVLSDPEKRKKYDEYGEHWKHADEFEAQKKARQHAGGGGGGFSGFGGDGGSYWYSSDGEGFSGGDAGGFSDFFESMFGHRGGGGRGNAGFRGQDFNAELHLSLRDAARTHKQVLNVNGKQVRITIPAGVADGQVIKLKGYGGEGINGGPAGDLYITFKIAEDSVFKRLGDDLYVDVEMDLYTAVLGGEKVIDTLEGKVKLKIKPETQNGTKVRLKGKGFPVYKKEGQFGDLIITYSVKIPTNLTDRQKELFRELQQSMN,failed
5,LIANEKRFRLIIEASPSALFMVDKTGVITLVNTQGERLFGYTREELLGRSINMLLPETLREIHQQHLSHYLVHPIAKNMSMRDDLLGCCKDGTPLAVEVGLTPVHFSNGIYILTTINNISERKRIEAQRIEHMAELERINQELDRFAYIASHDLKSPL,failed
6,SSASFTKEQADAIRRIRNSKDSWDMLGVKPGASRDEVNKAYRKLAVLLHPDKCVAPGSEDAFKAVVNARTALLKNIK,not failed
7,MAVSFLRIPIPSRVFWYPTRLIRVTPALLRFSSSAAFQPSSTSLSPPSSDNFLADKWESYRKKKVVIRIGYVGTDYRGLQIQRDDPSIKTIEGELEVAIYKAGGIRDSNYGDLHKIGWARSSRTDKGVHSLATSISLKMEIPETAWKDDPQGTVLAKCISKHLPENIRVFSVLPSNRRFDPRRECTLRKYSYLLPVDVLGIKNSFTSDEIDYHITDFNEILKEFEGEYPFHNYTQRSRYRRKSEQKIKQRNGRPPREPKSIKASESEFREENHIEIGEEEEEKEVDGESDEHVVTPDSDNSQVYSRAKWLYEPDETDKISGAHFRKVFRCRSGKLENSLGFGFVEISIWGESFMLHQIRKMIGTAVAVKRELLPRDIIRLSLNKFTRIVLPLAPSEVLILRGNSFEVRRLPERPGMEATGESEEVEKEIEEFYRAVMVPQVSIFLDSEKSPWKEWVDHLDRNDGLIDEELEDVRKGWEEWKAAKPWMNLKKTEDDEEALSSVSVPIHQAL,failed
8,MNLGWLSLLALIPILTVFLLLVVLRWPAKRAMPIAFFVTALAAYFLWEVPGHQIGAASVKGVVTALEVLFIVFGAVLLLNTLKESGAIHTIRQGFIEISPDRRVQAIIICWLFGSFIEGASGWGTPAAILAPLLVAIGFPAMASVMVALIIQSTPVSYGAVGTPILVGVSSGLAGADNVAVEASGLGLTVDEYVRMIGGQVSIIHGIVGLFIPLIMVTMLTFFFGKNRSLKEGCEVWPFAIFAGLAFTIPYMIVANVLGPEFPSLFGGLIGLAIVVPAAKKGWLLPKRSWSFAHESMWDPEWTGTLKADSLAEPTIRPWVAWLPYVLIGLLLVLTRLNGLPFGNWLKRLEFSVEGLFGTAISITSTPLFLPGFIMVIASLVGYVIYRMKVDSYMHAVKQSSAMIVRAAPALLFAVPMVQVFINSGDNASGFVSMPLVLAEGVSQLVGESWPLVAPVIGALGAFVAGSNTISNMMFSLFQFGTAENVGLNPATIVALQAVGGAAGNMICVHNVVAASATAGLIGKEGALIRKLLIPTGYYLFFAGAIGYVAFFGIGFNIGTIMAILVIIGIVWMIVKGNQQKKEKLNNIEEKFGG,failed
9,MKKKINCFIPFGNPKDTIQTVKELQASELVNKIYLLSADTNKECLPGCECLLINGLYSTSTIKTIADNADDASYLLLYTKQTPLKLGLYALERMTQIIQSSSENAMVYADHYQLVDGVLKQAPVIDYQQGSLRDDFDFGSVLLFNSEIFTLASSILEETVFQYAAFYEMRLMLGNLFQIIHINEFLYTEIETDTRKSGEKQFDYVNPKNREVQIEMEKVCIKHLKEINAYVRPSSRTVNLDREAFEFEASVIIPVRNRIRTIRDAVNSALSQQTTFPFNVIVIDNHSTDGTTEALQEFSADNRLIHIIPQENDLGIGGCWNVGVHHEKCGKFAVQLDSDDLYKDEHTLQKIVDTFYQQNCAMVIGTYLMTDFQMNEIAPGVIDHKEWTVEDGPNNALRINGLGAPRAFYTPILRKIKFPNTSYGEDYAIGLSISREYTIGRIYDVIYLCRRWEGNSDAALDIEKINRNNFYKDSIRTWELQARIRMHSIDESFQRLVNEMIEKQKKDWKLAKKNYKELEQNLKKEKTLELKLGGDTKRVRFFPNPQRAISTMAQTDSQSIQERPCFLCNDNRPAEQTSLSLGHYEVCLNPYPIFRRHLTIIEEEHTPQTIKNRFEDMLFLAENMNEFLILYNGPECGASAPDHMHFQAAGKEEKIANPFGMTFISDMLSSEDSVHSHLENGFTTSIGISSPNRRGIIEMFEYLYDKIVSIYHDKEPLINVIAWYGLETVNRTGGDEIKQWNCIIFLRSKHRPECYYAQGKKGLLISPAIAEMCGVFPIVREEDLDKITAKKITQIYKEVSLSQEQLKALTDQTS,failed
10,MKFIRQLSLAAVLLVLPGASVAQVQPGQTFAARVVEVTDGDTFGVRRSAGGEVIIRLRGVDAPESDQPYGTAATRAARRYVGGKNVRVAVEEIGRYGRAVARIEAEGSDLGAMLIGDGLAWHYDEYAPNESEYRRLERQARNAKRGLWSQSSPVPPWEWRDRTSGPGETSFEDRDCSDFDTQPEAQRFFERHRSDSSGGDPHNLDRDGDGQACESLPGGRNM,failed
11,MTATSLSKGANVAVDSPAVRAELVWSPGPGVPEVDASALLLTSAGRVRDDGDFVFYNQPRHTSGAVGHLGKRVGPGANAGLTTDAVEVDLRAVEAAVERIVLCASADGGTFGRVPGLSLRLLDAATGTELARFDITADTETALVGGELYRRAGTWKFRAVGQGYASGLAGLATDFGITVDDDAPPTAPATPATAPPTAPPVPAPPTTAVPPPPPALASPPVPAPAATGPRLTKGEERLPVDMRKRLSLRKEQVAVSLSKHGAAGITARVVLVLDASGSMSFLYSKGVVADVVERMAAVAAQLDDDGEMQAWTFASNPARLPDLPLGDLPKWLRLHVRVGEISLFRRGRKKGLHPEQVDMRAVGIQNEEQKVIAEVRAFVRANPAPVPTLVLFFSDGGVYRNAEIERELREAVEEPVFWQFVGLGRSNYGVLERFDTLPGRRVDNVGFFAVDDIGTVPDPELYDRLLSEFPSWVTAAGRAGIL,failed
